# For at least one entry, the source does not settle the construct or the ends of the probe. For some of these results: A negative result means that nothing was seen under these conditions. For some of these results: A weaker result is weaker than the reference pair of the same experiment. For some of these results: At least one verdict was read from the data and is not stated in words by the source. For some of these results: Protein sequences can lack the tags named with them.
# Key:
# Assay in all cases: EMSA
# [1] = tested on: Motif_102 protein Mesau_05682; settings: EMSA: 20 mM Tris-HCl pH 7.5, 250 mM NaCl, 5% glycerol, 2 uL of 1 uM FAM-DNA (labeled:unlabeled strand 1:4) + 2 uL of ~10 uM protein in 20 uL, 37 C, 30 min, recombinant protein, protein details: His (pET-28a, Ni column), label: 5'FAM on strand 1
# [2] = tested on: Motif_79 protein CP49_24200; settings: EMSA: 20 mM Tris-HCl pH 7.5, 250 mM NaCl, 5% glycerol, 2 uL of 1 uM FAM-DNA (labeled:unlabeled strand 1:4) + 2 uL of ~10 uM protein in 20 uL, 37 C, 30 min, recombinant protein, protein details: His (pET-28a, Ni column), label: 5'FAM on strand 1
# [3] = tested on: Motif_24 protein G4P54_09295; settings: EMSA: 20 mM Tris-HCl pH 7.5, 250 mM NaCl, 5% glycerol, 2 uL of 1 uM FAM-DNA (labeled:unlabeled strand 1:4) + 2 uL of ~10 uM protein in 20 uL, 37 C, 30 min, recombinant protein, protein details: His (pET-28a, Ni column), label: 5'FAM on strand 1
# [4] = tested on: Motif_2 protein AR1Y2_1945; settings: EMSA: 20 mM Tris-HCl pH 7.5, 250 mM NaCl, 5% glycerol; 2 uL of 1 uM FAM-DNA (labeled:unlabeled strand 1:4) + 2 uL of ~10 uM protein in 20 uL; 37 C, 30 min; recombinant protein; protein details: His (pET-28a, Ni column); label: 5'FAM on strand 1
# [5] = tested on: Motif_210 protein C3L50_11205; settings: EMSA: 20 mM Tris-HCl pH 7.5, 250 mM NaCl, 5% glycerol, 2 uL of 1 uM FAM-DNA (labeled:unlabeled strand 1:4) + 2 uL of ~10 uM protein in 20 uL, 37 C, 30 min, recombinant protein, protein details: His (pET-28a, Ni column), label: 5'FAM on strand 1
# [6] = tested on: Motif_177 protein G6048_13090; settings: EMSA: 20 mM Tris-HCl pH 7.5, 250 mM NaCl, 5% glycerol, 2 uL of 1 uM FAM-DNA (labeled:unlabeled strand 1:4) + 2 uL of ~10 uM protein in 20 uL, 37 C, 30 min, recombinant protein, protein details: His (pET-28a, Ni column), label: 5'FAM on strand 1
# [7] = tested on: Motif_49 protein Dd1591_4245; settings: EMSA: 20 mM Tris-HCl pH 7.5, 250 mM NaCl, 5% glycerol; 2 uL of 1 uM FAM-DNA (labeled:unlabeled strand 1:4) + 2 uL of ~10 uM protein in 20 uL; 37 C, 30 min; recombinant protein; protein details: His (pET-28a, Ni column); label: 5'FAM on strand 1
# [8] = tested on: Motif_15 protein L0F81_11155; settings: EMSA: 20 mM Tris-HCl pH 7.5, 250 mM NaCl, 5% glycerol, 2 uL of 1 uM FAM-DNA (labeled:unlabeled strand 1:4) + 2 uL of ~10 uM protein in 20 uL, 37 C, 30 min, recombinant protein, protein details: His (pET-28a, Ni column), label: 5'FAM on strand 1
# [9] = molecular target: T1, Motif_38 protein HW450_07255 (UniProt A0A7G5FC37); settings: weakened or abolished; EMSA: 20 mM Tris-HCl pH 7.5, 250 mM NaCl, 5% glycerol; 2 uL of 1 uM FAM-DNA (labeled:unlabeled strand 1:4) + 2 uL of ~10 uM protein in 20 uL; 37 C, 30 min; recombinant protein; protein details: His (pET-28a, Ni column); label: 5'FAM on strand 1
# T1 sequence (looked up, limits assumed): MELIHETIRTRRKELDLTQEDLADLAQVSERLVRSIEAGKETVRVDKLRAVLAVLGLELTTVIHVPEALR
# [10] = tested on: Motif_209 protein DRF58_00335; settings: EMSA: 20 mM Tris-HCl pH 7.5, 250 mM NaCl, 5% glycerol, 2 uL of 1 uM FAM-DNA (labeled:unlabeled strand 1:4) + 2 uL of ~10 uM protein in 20 uL, 37 C, 30 min, recombinant protein, protein details: His (pET-28a, Ni column), label: 5'FAM on strand 1
sequence,measurement,setting,value
ATGAAATATAGTCTTCGTGCTATATAACGC (double strand) [Mot102-mut1],binding result,[1]; weakened or abolished,binds more weakly
TCGAAATAATCTGTTTACGTATTACCCACT (double strand) [Mot79-mut1],binding result,[2]; weakened or abolished,binds more weakly
ATGAAATGTAGTCTTCGTGCTACATAACGC (double strand) [Mot102-WT],binding result,[3],binds
same,binding result,[1],binds
same,binding result,[4],no binding
same,binding result,[5],binds
GCAAATAGTGCAGAGGTCTGCACTGACATG (double strand) [Mot177-WT],binding result,[4],no binding
same,binding result,[6],binds
TCTAAATTACTGCTATAGCAGTAAAAAAAT (double strand) [Mot210-WT],binding result,[4],no binding
same,binding result,[5],binds
same,binding result,[7],binds more weakly
ACTCTCTATGCGTTTCACGCATACCCGGT (double strand) [15-WT],binding result,[8],binds
same,binding result,[4],no binding
TCTAAATTATTGCTATAGCAATAAAAAAAT (double strand) [Mot210-mut1],binding result,[5]; weakened or abolished,binds more weakly
AATAAATCGACACAATCGTGTCGATTTTGG (double strand) [Mot38-mut1],binding result,[9],binds more weakly
ACTCTCTACGCGTTTCACGCGTACCCGGT (double strand) [15-mut1],binding result,[8]; weakened or abolished,binds more weakly
TTCTCTTACCCGCTATAGGGGATAAATGTT (double strand) [Mot49-WT],binding result,[5],binds more weakly
same,binding result,[7],binds
GCAAATAGTACAGAGGTCTGTACTGACATG (double strand) [Mot177-mut1],binding result,[6]; weakened or abolished,binds more weakly
CGTAAACTCTACGGAGCGTTGATTGTGTT (double strand) [Mot2-WT],binding result,[4],no binding
TCACAATTAGCAAACGTTTGCTAAATTTTT (double strand) [Mot209-mut1],binding result,[10]; weakened or abolished,binds more weakly
TTATAATGTAAAGTACACTTTACGTTAAGG (double strand) [Mot24-WT],binding result,[3],binds
same,binding result,[4],no binding
TCGAAATGATCTGTTTACGTATCACCCACT (double strand) [Mot79-WT],binding result,[3],binds
same,binding result,[4],no binding
same,binding result,[2],binds
TTATAATATAAAGTACACTTTATGTTAAGG (double strand) [Mot24-mut1],binding result,[3]; weakened or abolished,binds more weakly
AATAAATCGGCACAATCGTGCCGATTTTGG (double strand) [Mot38-WT],binding result,[4],no binding
same,binding result,[5],binds
TCACAATTAGCGAACGTTCGCTAAATTTTT (double strand) [Mot209-WT],binding result,[10],binds
same,binding result,[4],no binding

# — publication PMC12565409, “Computational–Experimental Identification of Palindromic Motifs Bound by Bacterial XRE Family Transcriptional Regulators”
